Experimental data as given in paper PMC8277845.
No constants are given. Whether binding was seen depends on the method and setting. Binding seen in cells or lysates may run through a third protein.

Sequences of proteins named here, by UniProt entry; tags and fusion partners are left off.
UniProt P19474: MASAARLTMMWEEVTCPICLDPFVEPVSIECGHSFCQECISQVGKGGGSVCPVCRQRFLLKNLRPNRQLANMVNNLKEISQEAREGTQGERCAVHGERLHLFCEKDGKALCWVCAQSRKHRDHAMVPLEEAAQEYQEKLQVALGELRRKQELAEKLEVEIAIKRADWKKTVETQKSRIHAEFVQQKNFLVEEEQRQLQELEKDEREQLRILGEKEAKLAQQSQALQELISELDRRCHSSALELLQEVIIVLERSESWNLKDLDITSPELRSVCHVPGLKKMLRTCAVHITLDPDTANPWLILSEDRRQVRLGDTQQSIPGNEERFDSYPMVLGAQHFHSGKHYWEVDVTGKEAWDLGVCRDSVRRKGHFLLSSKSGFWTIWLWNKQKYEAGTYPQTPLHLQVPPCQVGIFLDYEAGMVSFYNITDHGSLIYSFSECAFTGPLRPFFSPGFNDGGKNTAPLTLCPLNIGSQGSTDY
UniProt Q9Y4X5: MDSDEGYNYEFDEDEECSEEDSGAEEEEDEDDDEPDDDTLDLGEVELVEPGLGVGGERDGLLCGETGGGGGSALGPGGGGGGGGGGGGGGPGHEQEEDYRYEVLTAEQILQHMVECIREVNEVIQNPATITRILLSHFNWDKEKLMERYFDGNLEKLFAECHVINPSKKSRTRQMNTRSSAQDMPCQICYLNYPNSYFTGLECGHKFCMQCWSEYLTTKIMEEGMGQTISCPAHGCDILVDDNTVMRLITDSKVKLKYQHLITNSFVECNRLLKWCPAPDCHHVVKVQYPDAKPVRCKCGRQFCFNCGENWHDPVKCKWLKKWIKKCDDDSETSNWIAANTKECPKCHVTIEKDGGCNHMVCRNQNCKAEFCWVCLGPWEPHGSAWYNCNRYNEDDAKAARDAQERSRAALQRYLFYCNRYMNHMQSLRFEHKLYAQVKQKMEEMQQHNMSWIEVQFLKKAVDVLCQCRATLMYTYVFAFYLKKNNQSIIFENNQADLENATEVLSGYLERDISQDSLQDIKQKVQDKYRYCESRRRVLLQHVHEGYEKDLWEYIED
UniProt Q14258: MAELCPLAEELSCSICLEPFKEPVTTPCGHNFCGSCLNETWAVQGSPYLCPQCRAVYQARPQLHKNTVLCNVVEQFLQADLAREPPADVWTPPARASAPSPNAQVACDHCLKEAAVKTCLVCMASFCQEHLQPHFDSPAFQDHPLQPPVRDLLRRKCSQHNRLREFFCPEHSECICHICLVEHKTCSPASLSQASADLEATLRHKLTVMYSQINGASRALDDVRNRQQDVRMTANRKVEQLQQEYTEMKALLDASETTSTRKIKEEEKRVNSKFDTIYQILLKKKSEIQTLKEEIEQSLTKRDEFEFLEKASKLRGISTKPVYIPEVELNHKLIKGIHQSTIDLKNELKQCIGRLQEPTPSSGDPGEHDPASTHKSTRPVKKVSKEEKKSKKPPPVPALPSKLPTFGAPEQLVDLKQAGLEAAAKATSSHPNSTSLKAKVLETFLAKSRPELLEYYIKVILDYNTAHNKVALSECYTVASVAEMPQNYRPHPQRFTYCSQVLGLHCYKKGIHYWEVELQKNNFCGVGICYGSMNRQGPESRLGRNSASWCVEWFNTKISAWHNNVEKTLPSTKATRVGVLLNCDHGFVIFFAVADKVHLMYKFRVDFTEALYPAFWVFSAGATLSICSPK

Target: tripartite motif-containing protein 21 (TRIM21), Flag-tagged (UniProt P19474)
Assay: co-IP; TRIM21-Flag co-expressed with HHARI-Myc, EFP-Myc or HERC5-Myc in HEK293 cells; lysates (Western & IP lysis buffer) immunoprecipitated with mouse control IgG or mouse Flag antibodies and protein A/G agarose, 4 h or overnight at 4 °C; blot with rabbit Flag and mouse Myc antibodies

binding	Substance
no binding	human homolog of Ariadne (HHARI), Myc-tagged (from UniProt Q9Y4X5 1-557) (enzyme)
no binding	estrogen-responsive finger protein (EFP), Myc-tagged (from UniProt Q14258 1-630) (enzyme)
